No constants are given. Whether binding was seen depends on the method and setting. Binding seen in cells or lysates may run through a third protein. Some entries that bind do so weakly or less than the wild type. For part of these data: Sequences can lack the tags named with a protein.
What was measured:
Mouse FLAG-MDM4 (mouse) = target: T1, Mouse FLAG-MDM4 (mouse) (UniProt O35618); test: co-IP; p53KO/KO; Mdm2KO/KO MEFs transfected with plasmid pairs (1:1), 10 µM MG-132 for 4 h; lysis in 150 mM NaCl, 50 mM Tris-HCl pH 8.0, 1% Triton X-100; antibody overnight at 4°C, Dynabeads Protein G; Western blot
T1 sequence: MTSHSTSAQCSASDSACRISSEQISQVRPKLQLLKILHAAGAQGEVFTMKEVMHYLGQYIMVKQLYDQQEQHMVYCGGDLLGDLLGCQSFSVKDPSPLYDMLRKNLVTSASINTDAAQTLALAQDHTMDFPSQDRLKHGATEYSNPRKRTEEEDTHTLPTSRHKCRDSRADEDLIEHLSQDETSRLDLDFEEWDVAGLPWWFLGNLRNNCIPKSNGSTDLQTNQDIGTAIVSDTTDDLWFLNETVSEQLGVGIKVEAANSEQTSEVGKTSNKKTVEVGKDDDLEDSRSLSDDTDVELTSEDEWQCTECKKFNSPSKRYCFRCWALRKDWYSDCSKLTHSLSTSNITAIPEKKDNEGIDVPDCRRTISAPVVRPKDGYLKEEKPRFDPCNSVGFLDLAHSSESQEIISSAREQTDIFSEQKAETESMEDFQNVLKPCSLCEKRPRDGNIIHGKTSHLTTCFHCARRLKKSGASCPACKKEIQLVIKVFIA

The chains behind the UniProt entries cited, without tags or fusion partners. Where a name states a change or a piece, a line headed by the entry shows the natural chain unless it says otherwise. A line that says so, or that is headed by a name, gives the form on record, which may keep a tag or linker.
UniProt P02340: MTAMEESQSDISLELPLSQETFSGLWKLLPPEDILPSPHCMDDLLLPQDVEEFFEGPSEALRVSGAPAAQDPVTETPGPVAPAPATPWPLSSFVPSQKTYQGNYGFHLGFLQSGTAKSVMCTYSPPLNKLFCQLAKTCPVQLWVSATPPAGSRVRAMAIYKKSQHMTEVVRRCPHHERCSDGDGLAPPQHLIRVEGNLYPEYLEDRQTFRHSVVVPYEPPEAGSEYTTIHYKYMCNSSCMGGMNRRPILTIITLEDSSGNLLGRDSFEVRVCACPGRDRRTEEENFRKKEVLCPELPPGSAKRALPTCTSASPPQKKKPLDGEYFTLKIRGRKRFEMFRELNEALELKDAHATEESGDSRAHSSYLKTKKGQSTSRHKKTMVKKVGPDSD
mouse MDM2 I438K (pcDNA3.1 plasmid) (P23804-1, form named): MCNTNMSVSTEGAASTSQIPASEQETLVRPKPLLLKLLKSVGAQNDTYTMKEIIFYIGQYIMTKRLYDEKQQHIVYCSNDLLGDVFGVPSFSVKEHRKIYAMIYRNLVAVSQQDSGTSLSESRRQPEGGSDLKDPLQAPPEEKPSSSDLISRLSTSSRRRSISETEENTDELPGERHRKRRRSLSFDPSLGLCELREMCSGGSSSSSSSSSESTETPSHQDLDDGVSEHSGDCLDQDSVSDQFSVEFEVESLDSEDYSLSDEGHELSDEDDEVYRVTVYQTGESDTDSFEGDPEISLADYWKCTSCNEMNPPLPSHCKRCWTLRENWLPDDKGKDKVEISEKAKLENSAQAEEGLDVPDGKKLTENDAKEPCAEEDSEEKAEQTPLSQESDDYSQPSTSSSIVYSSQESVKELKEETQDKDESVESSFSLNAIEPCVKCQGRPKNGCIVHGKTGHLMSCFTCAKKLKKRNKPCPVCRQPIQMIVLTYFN

[1] = target: mouse p53 (pcDNA3.1 plasmid) (mouse) (UniProt P02340); test: as above

Question: With “mouse MDM2 wild type (pcDNA3.1 plasmid) (from UniProt P23804-1 1-489)” as the substance, how does the binding (Mouse FLAG-MDM4 (mouse)) read?
Answer: binds

Question: With “mouse MDM2 I438K (pcDNA3.1 plasmid) (from UniProt P23804-1 1-489)” as the substance, how does the binding [1] read?
Answer: binds

Question: And the binding (Mouse FLAG-MDM4 (mouse))?
Answer: binds

Source: publication PMC7778261
